Results on 50 molecules are retold here after paper PMC12040169 (PLOS Biology, 2025).

The list shows a part of the results.

This assay relates to T1, CTL2-GFP (C. trachomatis L2/434/Bu, GFP-expressing).
T1 construct: L2/434/Bu, GFP-expressing
The arrangement: species or system HeLa; Intracellular C. trachomatis growth in HeLa cells, bulk GFP fluorescence relative to DMSO. The conditions noted are these: bulk GFP, single well; 28.5 h, 10 µM; inhibitor.
With `CC1(C)C(N(O)C(=O)Nc2cccc3ccccc23)N(c2cccc3ccccc23)C(=O)N1CC(=O)NN` (centres unmarked) [CBK261004], the “% of control remaining” value is 105.145%.

For the molecule `COC(=O)[C@H]1CN(C(=O)c2cccs2)C[C@@H]1c1ccc(F)cc1` [CBK283732], the “% of control remaining” value stood at 118.632%.

With `Cc1noc(C)c1NC(=O)c1cc2ccccc2n1C` [CBK200311], the “% of control remaining” value is recorded as 171.482%.

`Cc1cccc(OCCCn2cncc2-c2cn(C)nc2C)c1` [CBK281766]: the “% of control remaining” value is 146.62%.

Turning to `CCOC(=O)N/N=C(/C)C(C)(C)C` [CBK016460], the “% of control remaining” value amounted to 131.728%.

With `CCOc1cc(C(=S)N2CCCCC2)ccc1OC(=O)c1ccccc1Cl` [CBK019660], the “% of control remaining” value is 108.143%.

Turning to `Cc1cc(CN(C)c2nccc(N3CCN[C@H]4CS(=O)(=O)C[C@H]43)n2)no1` [CBK306580], the “% of control remaining” value came out at 110.785%.

For `COc1ccc(NC(=O)c2ccc(CN3CCOCC3)cc2)c(OC)c1` [CBK263790], the “% of control remaining” value amounted to 100%.

Take `COc1ccc2c(c1)C1(CC(=O)N(CC3CCCCC3)C1=O)C(=O)N2C` (centres unmarked) [CBK075201]: the “% of control remaining” value turned out to be 119.121%.

With `CSc1nnc(C2CCCN2C(=O)[C@@H]2C[C@@H]3C=C[C@H]2C3)n1C` (some centres unmarked) [CBK282012], the “% of control remaining” value is given as 168.559%.

Take `O=C(NCn1nnc2ccccc21)c1ccccc1` [CBK056950]: the “% of control remaining” value came out at 115.846%.

`Clc1cccc(-c2cc(NCc3cccs3)n3nccc3n2)c1` [CBK037238]: the “% of control remaining” value is 135.873%.

As to `O=C1NC2(CCCCC2)C(=O)N1Cc1cnn(-c2ccccc2)n1` [CBK305570], the “% of control remaining” value is listed as 86.5384%.

Regarding `Cn1cnnc1CNC(=O)N1CCN(Cc2cccs2)CC1` [CBK305045], the “% of control remaining” value is 123.003%.

Consider `CN(Cc1nc(-c2ccccc2)no1)C(=O)COCC1CCCCO1` (centres unmarked) [CBK307643], for which the “% of control remaining” value is on record as 94.1941%.

For the molecule `O=C(O)c1ccc(NC(=S)NC(NC(=O)c2ccco2)C(Cl)(Cl)Cl)cc1` (centres unmarked) [CBK261025], the “% of control remaining” value turned out to be 102.97%.

Turning to `Cc1cccc2cc(/C=C(\C#N)c3nc(-c4cc5ccccc5oc4=O)cs3)c(Cl)nc12` [CBK261642], the “% of control remaining” value came out at 100%.

`COc1cccc(NC(=O)N2CCC(n3c(=O)n(C(=O)Nc4cccc(OC)c4)c4ccccc43)CC2)c1` [CBK149177]: the “% of control remaining” value came out at 100%.

Take `CC(=O)Nc1cccc(C(C)NC(=O)N(C)C2CCc3ccccc32)c1` (centres unmarked) [CBK306251]: the “% of control remaining” value turned out to be 104.751%.

In the case of `COC(=O)c1sc(NC(=O)C2CC2)c(C#N)c1C` [CBK026049], the “% of control remaining” value is 122.602%.

Consider `COc1ccc(-c2noc([C@@H]3C[C@@H](O)CN3C3CCOCC3)n2)cc1` [CBK288844], for which the “% of control remaining” value is 123.865%.

On to `NS(=O)(=O)c1ccc(CCNC(=O)/C=C/c2ccccc2[N+](=O)[O-])cc1` [CBK265709], for which the “% of control remaining” value came out at 127.821%.

For the molecule `Cc1ccc(CN(CCCn2ccnc2)Cc2ccccc2O)o1` [CBK283189], the “% of control remaining” value is listed as 95.8652%.

For the molecule `CNCCCC1(c2ccccc2)SC(C)(C)c2ccccc21` (centres unmarked) [CBK015933C], the “% of control remaining” value came out at 75.6716%.

For `COc1ccc(C)cc1NC(=O)CN(c1ccc(F)cc1)S(=O)(=O)c1ccc(C)cc1` [CBK264122], the “% of control remaining” value stood at 95.2055%.

Regarding `CCOC(=O)c1c(NC(=O)C2CCCN2S(=O)(=O)c2ccccc2)sc2c1CCCC2` (centres unmarked) [CBK265012], the “% of control remaining” value is 93.9165%.

Take `O=C(NC(c1ccccc1)c1ccco1)C1CCN(CCN2C(=O)c3ccccc3C2=O)CC1` (centres unmarked) [CBK148297]: the “% of control remaining” value was determined as 95.0785%.

Turning to `O=C(NC1CCCc2c1cnn2Cc1ccccc1)c1ccncc1` (centres unmarked) [CBK282250], the “% of control remaining” value was 125.929%.

Regarding `CC1(C)NC(=O)N(CC(O)COc2ccc([N+](=O)[O-])cc2)C1=O` (centres unmarked) [CBK262840], the “% of control remaining” value worked out at 106.129%.

On to `CCN1C(=O)CC2(C1=O)C(=O)N(CCCOc1ccccc1)c1ccc(OC)cc12` (centres unmarked) [CBK075585], for which the “% of control remaining” value is 113.688%.

Consider `CCOC(=O)c1cnn2c(O)cc(CN3CCc4ccccc4C3)nc12` [CBK305679], for which the “% of control remaining” value came out at 112.626%.

Turning to `Cc1ccccc1-c1ccc(C(=O)N(C)CCN(C)C)c(N(C)C)n1` [CBK106090], the “% of control remaining” value stood at 158.81%.

`COc1ccc(NC(=O)CSc2nc(N)n[nH]2)cc1Cl` [CBK268065]: the “% of control remaining” value is 102.8%.

Take `CC(C)(C)OC(=O)NCCCn1cc(C(=O)O)nn1` [CBK287028]: the “% of control remaining” value is on record as 124.144%.

For `O=S(=O)(Nc1ncc(Br)c2cccnc12)c1ccc(Oc2ccccc2)cc1` [CBK073886], the “% of control remaining” value is reported as 98.6713%.

Turning to `O=S1(=O)CCN(Cc2ccc3c(c2)OCCCO3)CC1` [CBK074831], the “% of control remaining” value was 108.544%.

For the molecule `O=C(O)C1CCN(c2cncc(-c3ccc4ccccc4c3)n2)CC1` [CBK065801], the “% of control remaining” value came out at 136.893%.

Regarding `O=S(=O)(Cc1csc(N2CCOCC2)n1)c1ccccn1` [CBK011137], the “% of control remaining” value amounted to 131.529%.

Turning to `Cc1ccccc1Sc1ccc(C(F)(F)F)cn1` [CBK115237], the “% of control remaining” value is on record as 101.876%.

As to `COC(=O)c1cn([C@H]2CO[C@H]3[C@@H]2OC[C@@H]3NC(=O)NC2CCCCC2)nn1` [CBK289499], the “% of control remaining” value amounted to 137.824%.

Turning to `CSc1ncc(Cl)c(C(=O)Nc2nc(-c3ccc(S(=O)(=O)N4CCCCCC4)cc3)cs2)n1` [CBK268785], the “% of control remaining” value stood at 140.754%.

Regarding `Cc1ccccc1C(=O)N1CCC(O)(Cn2ccnc2C)CC1` [CBK284950], the “% of control remaining” value is 136.82%.

For `CCOC(=O)COc1cccc(/C=C2/SC(=S)N(c3cccc(C(=O)O)c3)C2=O)c1` [CBK265589], the “% of control remaining” value stood at 107.563%.

In the case of `Cc1n[nH]c(NCc2cccc(Cl)c2Cl)n1` [CBK288037], the “% of control remaining” value is reported as 122.58%.

Turning to `COC(C)(C)C(=O)N1CCCC(c2ccc(Cc3cccc(C(F)(F)F)c3)cn2)C1` (centres unmarked) [CBK286124], the “% of control remaining” value stood at 121.875%.

On to `COc1ccc2[nH]cc(CCNC(=O)c3ccc(NC(C)=O)cc3)c2c1` [CBK269296], for which the “% of control remaining” value amounted to 114.116%.

In the case of `CN(C)c1nc(N)nc(COc2ccccc2F)n1` [CBK288236], the “% of control remaining” value is recorded as 105.619%.

Consider `Cc1ccn(-c2ccc(N3CCC4(CC3)OCCO4)nn2)n1` [CBK305263], for which the “% of control remaining” value worked out at 134.57%.

Regarding `O=C(Nc1cccc(C(F)(F)F)c1)N[C@H]1CO[C@H]2[C@@H]1OC[C@H]2O` [CBK289476], the “% of control remaining” value is on record as 117.826%.

Turning to `COCCN(Cc1cnn(C)c1)C(=O)Cc1ccc(Cl)cc1` [CBK307407], the “% of control remaining” value is given as 90.3493%.
